Laboratory results: patent US20250353835A1, “N-TETRAZOLYL ARYL UREA-BASED DERIVATIVES, PREPARATION METHOD THEREFOR, AND USE THEREOF” (Hangzhou Yirui Pharmaceutical Technology Co., Ltd, priority 2022, published 2025)
For at least one compound, name, drawing or mass did not settle the structure.

Tests used:
[1] = tested on: mouse model of ragweed pollen-induced allergic conjunctivitis; assay: Mouse model of ragweed pollen-induced allergic conjunctivitis; format: in vivo, Balb/c mice; conditions: dexamethasone 0.1% eye drop
Procedure: SPF-grade Balb/c mice (half male and half female, 6-8 weeks old) were used as experimental animals. On Day 0 and Day 6, ragweed pollen footpad injection was injected subcutaneously into the footpads of mice for sensitization (65 μl per mouse). On Days 10-14, in the model group, eye drop of ragweed pollen was applied to both eyes of the mice (10 μl per mouse) once a day. The eye drops were applied for 5 consecutive days to trigger local allergic conjunctivitis (Wu B, et al., Frontiers in Immunology, 2021, 12:4754). […] On Day 14, within 30 minutes after the final challenge, the ocular clinical symptoms of the mice were observed under a microscope and scored according to the scoring criteria reported by Magone et al. (MerayoLloves J, et al., J Allergy Clin Immunol (1996) 97(5):1129-40; Magone M T, et al., Clin Immunol Immunopathol (1998) 87(1):75-84), the allergic response of the eyes were observed, including 4 indexes: conjunctival edema, conjunctival congestion, eyelid congestion and edema, and tearing. The scores were recorded as 0-3 points according to the severity (including none, mild, moderate and severe). […] The expression of allergic indicators IL-4 and IgE in the conjunctival tissue was detected by immunohistochemistry. […]
Diluted IL-4 or IgE antibodies were added and incubated overnight. […] Semi-quantitative analysis was conducted using Image-J software. […]

[2] = tested on: rat model of diabetic retinopathy; assay: Rat model of diabetic retinopathy (STZ); format: in vivo, Wistar rats; conditions: intraocular injection, versus model group
Procedure: 3.1 Laboratory animals: SPF-grade male Wistar rats, weighed 180-220 g.
3.3 Animal modeling and grouping: After one week of adaptive feeding, 134 male Wistar rats (weighed 220-260 g) were administered 65 mg/kg of STZ by one-time intraperitoneal injection to prepare a rat model of type I diabetic. The rats were fasting but water was allowable overnight for 15 h. The formulated STZ solution was intraperitoneally injected according to body weight. After 1 h, the diet was resumed and blood glucose was measured at 72 h. […]
3.4 Administration: The rats continued to be fed until blood glucose was measured once before administration. […] Blood glucose was measured once before sampling. […]
3.6 Retinal leukocyte stasis detection method (7 groups, 6 rats per group): PBS was perfused into the left ventricle for 1 min to remove red blood cells and other substances. Concanavalin A (FITC (Sigma, C7642) was perfused (20 μg/ml in PBS, 5 mg/kg) to mark adherent leukocytes. 4% PFA was perfused for 4 min for fixation. 1% Albumin (Sigma, A6414) (in PBS) was perfused for 1 min, and then PBS was perfused for 2 min. The retina was taken for retinal wholemount. Thereafter, the stasis of leukocytes on the vascular endothelium was observed under a fluorescence microscope. […]

Structure (SMILES): C[C@@H]1C[C@H]2[C@@H]3CCC4=CC(=O)C=C[C@]4(C)[C@@]3(F)[C@@H](O)C[C@]2(C)[C@@]1(O)C(=O)CO [Dexamethasone, dexamethasone, reference compound]
- inflammatory cell infiltration of conjunctival tissue (HE staining; in words) [1]: significant improvement in overall inflammatory cell infiltration
- mast cell degranulation (toluidine blue staining; in words) [1]: no manifest mast cell degranulation
- number of leukocyte stasis in the retina (fluorescent staining, FIG. 8; in words) [2]: significantly reduced
- retinal vascular penetration in rats (fluorescent staining, FIG. 6; in words) [2]: significantly reduced
